Reference: publication PMC6884526
No constants are given. Whether binding was seen depends on the method and setting. In cells and extracts the contact can be indirect.

Target: dynein intermediate chain (endogenous, mouse brain) (mouse (endogenous in whole brain))
Assay: co-IP; anti-DIC antibody on Protein G Dynabeads, mouse whole brain crude light membrane fraction, 16 h at 4 °C in PBS pH 7.4 with 2 mM EDTA and 0.1% BSA; mouse IgG control

binding: no binding
B1: GM130 (endogenous, mouse brain) (protein, UniProt Q921M4 1-999)
chain: MWPPRFPPPRPGMSEETRQSKLAAAKKKLREYQQKNSPGVPAGAKKKKKIKNGHSPERPTASDCQSPENVPTDHIAPAPPTAATDTMFLGVTPSPDADLTQSHDAGNCSNLMEETKTFSSTESLRQLSQQLNGLVSESTSYINGEGLTSSNMKELENRYQELAVALDSSYVTNKQLSSTIEELKQQNQDTLDQLEKEKKDYQQKLAKEQGSLREQLQVHIQTIGILVSEKAELQTALAHTQQAARQKAGESEDLASRLQSSRQRVGELERTLSTVSTQQKQADRYNKDLTKERDALKLELYKNSKSNEDLRQQNSELEEKLRVLVAEKAAAQLGVEELQKKLEMSELLLQQFSSQSSAAGGNEQLQHAMEERAQLETHVSQLMESLKQLQVERDQYAENLKGESAMWQQRVQQMAEQVHTLKEEKEHRERQVQELETSLAALRSQMEEPPPPEPPAGPSEAEEQLQGEVEQLHKELERLTGQLRAQVQDNESLSHLNREQEGRLLELEREAQRWSEQAEERKQILESMQSDRTTISRALSQNRELKEQLAELQNGFVRLTNENMEITSALQSEQHVKKELARKLGELQERLGELKETVELKSQEAQGLQEQRDQCLSHLQQYAAAYQQHLAAYEQLTSEKEAIHKQLLLQTQLMDQLQHEEVQGKMAAELARQELQEAQERLKATSQENQQLQAQLSLLVLPGEGDVDQEEEDEEVPQSSLAIPEDLDSREAMVAFFNAAIARAEEEQARLRVQLKEQKARCRSLSHLAAPVQSKLEKEAVVPRNVDDSASEESNQALHVAMEKLQSRFLEVMQEKVELKERVEELEHCCIQLSGETDTIGEYIALYQNQRAVLKARHLEKEEYISRLAQDKEEMKVKLLELQELVLRLVNERNEWQGKFLAVSQNPGDVLTPVPTGSQEFGAADQQDDLREVSLADDIEPAQGEAGVPAPHENPTAQQIMQLLREIQNPRERPGLGSNPCIPFFYRADENDEVKIMVV
